Laboratory results reported in paper PMC11207949.
Construct, isoform or probe ends are uncertain for at least one entry. Tags and fusion partners may be left off the protein sequences shown.

Target: T1, GmJAG1 (JAGGED 1, C2H2 zinc finger) (Glycine max) (UniProt M1RYC8)
T1 sequence (looked up, limits assumed): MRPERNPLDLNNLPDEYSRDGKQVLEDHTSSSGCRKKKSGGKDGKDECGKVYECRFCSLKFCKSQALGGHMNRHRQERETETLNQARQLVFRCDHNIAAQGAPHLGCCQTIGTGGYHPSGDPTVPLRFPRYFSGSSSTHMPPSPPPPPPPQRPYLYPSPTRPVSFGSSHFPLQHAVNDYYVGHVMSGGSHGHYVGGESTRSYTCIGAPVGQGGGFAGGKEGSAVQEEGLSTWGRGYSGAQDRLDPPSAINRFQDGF
Test: EMSA
Conditions: EMSA: 1 ug recombinant protein, 25 fmol biotin probe, 20 uL binding buffer (composition not given), room temperature, 0.5 h, LightShift Chemiluminescent EMSA kit, protein details: GST (pGEX-4T-1), label: 5' biotin

| Sequence | binding result |
| --- | --- |
| GAGTGCATGTCGCTAGCTTCACTGGCAGAACACATGCAGTG (double strand) [M2 probe] | binds |
| TTCACTGAACATGGCATCTCGCCACTTCCACTGGCGACACA (double strand) [M1 probe] | binds |
